Results are given in words; binding and its absence hold for the method and conditions named. Binding seen in cells or lysates may run through a third protein. Some binding calls cover weakened binding; strength is not graded here.
T1: IL-33 receptor (ST2, suppression of tumorigenicity 2) (mouse (endogenous in mouse mTh2 cells)) (UniProt P14719)
T1 sequence: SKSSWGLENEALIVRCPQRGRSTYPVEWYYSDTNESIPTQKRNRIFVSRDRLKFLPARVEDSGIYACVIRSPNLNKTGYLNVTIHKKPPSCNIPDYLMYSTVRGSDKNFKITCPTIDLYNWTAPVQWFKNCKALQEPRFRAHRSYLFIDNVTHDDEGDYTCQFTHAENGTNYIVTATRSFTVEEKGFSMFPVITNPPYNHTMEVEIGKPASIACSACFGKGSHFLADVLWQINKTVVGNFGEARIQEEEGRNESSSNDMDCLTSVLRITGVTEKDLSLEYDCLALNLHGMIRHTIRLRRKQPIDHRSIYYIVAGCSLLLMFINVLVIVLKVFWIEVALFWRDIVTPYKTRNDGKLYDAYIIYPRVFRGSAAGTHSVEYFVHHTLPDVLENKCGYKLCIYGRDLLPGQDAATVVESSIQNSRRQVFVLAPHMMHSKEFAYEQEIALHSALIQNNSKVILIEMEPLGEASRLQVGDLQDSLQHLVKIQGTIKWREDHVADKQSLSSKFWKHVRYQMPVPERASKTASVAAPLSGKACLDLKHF

Amino acid sequences for entries named in this document (tags omitted).
UniProt P22366: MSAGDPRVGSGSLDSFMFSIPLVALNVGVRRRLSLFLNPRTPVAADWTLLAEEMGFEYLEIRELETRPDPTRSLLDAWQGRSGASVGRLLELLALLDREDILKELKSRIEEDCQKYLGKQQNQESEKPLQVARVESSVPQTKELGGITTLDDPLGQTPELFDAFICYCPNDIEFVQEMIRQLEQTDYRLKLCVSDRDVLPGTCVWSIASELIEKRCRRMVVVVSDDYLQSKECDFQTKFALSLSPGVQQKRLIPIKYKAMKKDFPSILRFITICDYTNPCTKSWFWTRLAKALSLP

B1: Tumor necrosis factor receptor-associated factor 4 (TRAF4) (protein, UniProt Q61382 1-470)
chain: MPGFDYKFLEKPKRRLLCPLCGKPMREPVQVSTCGHRFCDTCLQEFLSEGVFKCPEDQLPLDYAKIYPDPELEVQVLGLAIRCIHSEEGCRWSGPLRHLQGHLNTCSFNVVPCPNRCPAKLSRRDLPAHLQHDCPKRRLKCEFCGCDFSGEAYESHEGVCPQESVYCENKCGARMMRRLLAQHATSECPKRTQPCAYCTKEFVYDTIQSHQYQCPRLPVPCPNQCGVGTVAREDLPTHLKDSCSTAFVLCPFKESGCKHRCPKLAMGRHVEESVKPHLAMMCALVSRQRQELQELRRELEELSIGSDGVLIWKIGSYGRRLQEAKAKPNLECFSPAFYTHKYGYKLQVSAFLNGNGSGEGTHLSIYIRVLPGAFDNLLEWPFARRVTFSLLDQSDPGLAKPQHVTETFHPDPNWKNFQKPGTWRGSLDESSLGFGYPKFISHQDIRKRNYVRDDAVFIRASVELPRKILS
B2: tumor necrosis factor (TNF) receptor-associated factor 6 (TRAF6) (protein, UniProt P70196 1-530)
chain: MSLLNCENSCGSSQSSSDCCAAMAASCSAAVKDDSVSGSASTGNLSSSFMEEIQGYDVEFDPPLESKYECPICLMALREAVQTPCGHRFCKACIIKSIRDAGHKCPVDNEILLENQLFPDNFAKREILSLTVKCPNKGCLQKMELRHLEDHQVHCEFALVNCPQCQRPFQKCQVNTHIIEDCPRRQVSCVNCAVSMAYEEKEIHDQSCPLANIICEYCGTILIREQMPNHYDLDCPTAPIPCTFSVFGCHEKMQRNHLARHLQENTQLHMRLLAQAVHNVNLALRPCDAASPSRGCRPEDPNYEETIKQLESRLVRQDHQIRELTAKMETQSMYVGELKRTIRTLEDKVAEMEAQQCNGIYIWKIGNFGMHLKSQEEERPVVIHSPGFYTGRPGYKLCMRLHLQLPTAQRCANYISLFVHTMQGEYDSHLPWPFQGTIRLTILDQSEALIRQNHEEVMDAKPELLAFQRPTIPRNPKGFGYVTFMHLEALRQGTFIKDDTLLVRCEVSTRFDMGGLRKEGFQPRSTDAGV

Biological target: T1, IL-33 receptor (ST2, suppression of tumorigenicity 2) (mouse (endogenous in mouse mTh2 cells))
Test: co-IP; lysates of in vitro-polarized mouse mTh2 cells treated with or without IL-33; Pierce IP Lysis Buffer (25 mM Tris-HCl pH 7.4, 150 mM NaCl, 1 mM EDTA, 1% NP-40, 5% glycerol); precipitated with 2 ug/mL anti-mouse ST2 antibody and Protein G magnetic beads; Western blot

| binding | Molecule |
| --- | --- |
| binds | myeloid differentiation primary response protein 8 (MYD88) (from UniProt P22366 1-296) |
| binds | B1 |
| binds | B2 |
